Assay results: the supplement of paper PMC10849652
The list shows a part of the results.

Amino acid sequences for entries named in this document (tags omitted). A change or cut given only in a name is not applied to a line headed by its entry.
UniProt Q15654: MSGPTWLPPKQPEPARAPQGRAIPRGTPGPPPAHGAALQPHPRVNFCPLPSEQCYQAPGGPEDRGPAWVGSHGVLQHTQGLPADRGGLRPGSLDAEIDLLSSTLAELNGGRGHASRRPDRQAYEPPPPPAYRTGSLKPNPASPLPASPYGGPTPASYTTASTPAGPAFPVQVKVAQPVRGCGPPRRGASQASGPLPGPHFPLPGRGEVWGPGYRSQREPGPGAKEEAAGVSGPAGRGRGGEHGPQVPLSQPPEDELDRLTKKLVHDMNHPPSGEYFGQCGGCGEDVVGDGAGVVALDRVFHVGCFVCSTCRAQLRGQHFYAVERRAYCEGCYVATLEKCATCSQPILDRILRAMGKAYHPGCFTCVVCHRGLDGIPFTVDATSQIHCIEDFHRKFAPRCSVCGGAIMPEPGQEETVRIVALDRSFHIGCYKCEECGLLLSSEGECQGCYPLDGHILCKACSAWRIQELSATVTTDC
UniProt P62995: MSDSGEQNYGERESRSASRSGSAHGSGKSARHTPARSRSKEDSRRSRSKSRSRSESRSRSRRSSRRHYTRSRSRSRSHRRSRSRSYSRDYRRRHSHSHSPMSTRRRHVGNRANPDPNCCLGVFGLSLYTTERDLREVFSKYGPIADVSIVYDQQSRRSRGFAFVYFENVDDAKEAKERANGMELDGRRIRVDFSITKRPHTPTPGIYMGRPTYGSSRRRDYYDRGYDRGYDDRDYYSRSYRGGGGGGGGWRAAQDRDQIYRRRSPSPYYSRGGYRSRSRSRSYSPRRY
UniProt O43715: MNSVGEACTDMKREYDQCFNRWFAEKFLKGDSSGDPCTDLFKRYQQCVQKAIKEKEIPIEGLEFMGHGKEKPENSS
UniProt Q8IUR0, whole entry, looked up: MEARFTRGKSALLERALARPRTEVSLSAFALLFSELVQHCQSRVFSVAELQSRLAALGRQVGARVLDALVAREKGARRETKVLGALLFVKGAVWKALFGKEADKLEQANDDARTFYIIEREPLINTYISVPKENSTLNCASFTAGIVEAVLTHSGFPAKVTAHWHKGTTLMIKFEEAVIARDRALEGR
UniProt Q8NFQ8: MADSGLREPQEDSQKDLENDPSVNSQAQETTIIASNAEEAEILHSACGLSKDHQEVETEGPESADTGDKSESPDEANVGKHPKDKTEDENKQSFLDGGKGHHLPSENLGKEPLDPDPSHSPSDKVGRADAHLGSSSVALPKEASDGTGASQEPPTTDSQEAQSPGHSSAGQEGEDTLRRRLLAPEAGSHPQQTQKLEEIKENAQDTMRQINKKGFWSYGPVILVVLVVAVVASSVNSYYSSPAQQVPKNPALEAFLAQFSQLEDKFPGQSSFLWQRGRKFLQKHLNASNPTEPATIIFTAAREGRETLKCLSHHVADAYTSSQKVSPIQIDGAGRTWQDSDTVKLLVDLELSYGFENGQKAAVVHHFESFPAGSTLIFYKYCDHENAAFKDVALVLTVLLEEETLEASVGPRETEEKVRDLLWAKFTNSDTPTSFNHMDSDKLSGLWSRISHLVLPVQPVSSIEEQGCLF
UniProt P09493, whole entry, looked up: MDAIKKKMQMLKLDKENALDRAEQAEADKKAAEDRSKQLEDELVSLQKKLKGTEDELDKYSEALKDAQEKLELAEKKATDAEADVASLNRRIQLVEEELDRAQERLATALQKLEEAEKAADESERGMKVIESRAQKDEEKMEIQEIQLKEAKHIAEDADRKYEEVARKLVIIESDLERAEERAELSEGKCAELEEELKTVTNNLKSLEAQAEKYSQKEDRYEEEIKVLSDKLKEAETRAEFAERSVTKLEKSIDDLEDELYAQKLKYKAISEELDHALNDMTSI
UniProt P20333, whole entry, looked up: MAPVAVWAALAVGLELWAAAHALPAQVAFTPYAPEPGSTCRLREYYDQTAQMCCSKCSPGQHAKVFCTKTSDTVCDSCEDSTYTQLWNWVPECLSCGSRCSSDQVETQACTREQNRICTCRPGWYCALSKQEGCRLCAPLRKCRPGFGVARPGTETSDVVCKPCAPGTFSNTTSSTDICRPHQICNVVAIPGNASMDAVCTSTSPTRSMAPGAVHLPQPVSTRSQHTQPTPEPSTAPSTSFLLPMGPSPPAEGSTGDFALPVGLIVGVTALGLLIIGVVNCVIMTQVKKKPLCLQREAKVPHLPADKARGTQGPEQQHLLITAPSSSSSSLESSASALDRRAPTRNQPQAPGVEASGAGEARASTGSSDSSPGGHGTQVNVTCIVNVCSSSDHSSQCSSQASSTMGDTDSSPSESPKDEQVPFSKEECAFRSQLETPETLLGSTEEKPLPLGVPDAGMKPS
UniProt Q02880: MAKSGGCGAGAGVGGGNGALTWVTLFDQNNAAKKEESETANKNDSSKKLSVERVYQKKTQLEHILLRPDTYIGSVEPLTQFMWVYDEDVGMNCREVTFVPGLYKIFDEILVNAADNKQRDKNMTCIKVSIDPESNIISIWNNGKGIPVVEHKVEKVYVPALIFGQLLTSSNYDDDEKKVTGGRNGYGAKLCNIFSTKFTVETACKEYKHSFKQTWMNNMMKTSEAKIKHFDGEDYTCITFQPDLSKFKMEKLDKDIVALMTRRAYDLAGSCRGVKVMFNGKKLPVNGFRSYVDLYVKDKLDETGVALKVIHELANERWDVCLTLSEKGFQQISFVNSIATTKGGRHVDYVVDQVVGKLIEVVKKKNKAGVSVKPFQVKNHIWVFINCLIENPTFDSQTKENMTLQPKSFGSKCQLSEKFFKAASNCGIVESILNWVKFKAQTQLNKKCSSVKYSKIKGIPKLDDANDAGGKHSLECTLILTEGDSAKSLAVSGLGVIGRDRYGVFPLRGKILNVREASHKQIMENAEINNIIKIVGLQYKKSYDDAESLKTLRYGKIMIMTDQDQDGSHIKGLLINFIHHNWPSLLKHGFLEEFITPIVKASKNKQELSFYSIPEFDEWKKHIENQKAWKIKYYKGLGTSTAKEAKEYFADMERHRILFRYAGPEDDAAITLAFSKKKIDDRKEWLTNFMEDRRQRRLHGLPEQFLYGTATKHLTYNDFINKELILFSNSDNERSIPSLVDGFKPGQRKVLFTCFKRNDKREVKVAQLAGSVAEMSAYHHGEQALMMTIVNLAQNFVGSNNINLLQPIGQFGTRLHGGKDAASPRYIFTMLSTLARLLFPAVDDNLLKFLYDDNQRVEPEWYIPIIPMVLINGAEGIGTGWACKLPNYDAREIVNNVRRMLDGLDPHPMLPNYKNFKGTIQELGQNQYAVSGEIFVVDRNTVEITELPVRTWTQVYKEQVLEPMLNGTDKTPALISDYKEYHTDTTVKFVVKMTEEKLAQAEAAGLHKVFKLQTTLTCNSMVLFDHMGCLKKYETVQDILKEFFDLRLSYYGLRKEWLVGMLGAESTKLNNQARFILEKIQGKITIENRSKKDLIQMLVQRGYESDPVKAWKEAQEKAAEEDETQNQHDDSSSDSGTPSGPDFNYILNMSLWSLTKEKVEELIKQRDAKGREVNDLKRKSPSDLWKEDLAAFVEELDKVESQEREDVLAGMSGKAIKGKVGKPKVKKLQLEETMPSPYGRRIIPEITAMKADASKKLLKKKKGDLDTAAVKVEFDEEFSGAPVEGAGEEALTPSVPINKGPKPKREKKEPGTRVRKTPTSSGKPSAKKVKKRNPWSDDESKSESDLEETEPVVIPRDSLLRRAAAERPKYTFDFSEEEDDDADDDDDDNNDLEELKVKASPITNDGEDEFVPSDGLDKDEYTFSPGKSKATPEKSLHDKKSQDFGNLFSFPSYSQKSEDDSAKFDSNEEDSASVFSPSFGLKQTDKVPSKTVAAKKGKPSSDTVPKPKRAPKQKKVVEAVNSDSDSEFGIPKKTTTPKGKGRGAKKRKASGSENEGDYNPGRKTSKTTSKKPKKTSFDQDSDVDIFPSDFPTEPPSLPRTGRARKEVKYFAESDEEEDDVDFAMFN
UniProt Q7Z4G4: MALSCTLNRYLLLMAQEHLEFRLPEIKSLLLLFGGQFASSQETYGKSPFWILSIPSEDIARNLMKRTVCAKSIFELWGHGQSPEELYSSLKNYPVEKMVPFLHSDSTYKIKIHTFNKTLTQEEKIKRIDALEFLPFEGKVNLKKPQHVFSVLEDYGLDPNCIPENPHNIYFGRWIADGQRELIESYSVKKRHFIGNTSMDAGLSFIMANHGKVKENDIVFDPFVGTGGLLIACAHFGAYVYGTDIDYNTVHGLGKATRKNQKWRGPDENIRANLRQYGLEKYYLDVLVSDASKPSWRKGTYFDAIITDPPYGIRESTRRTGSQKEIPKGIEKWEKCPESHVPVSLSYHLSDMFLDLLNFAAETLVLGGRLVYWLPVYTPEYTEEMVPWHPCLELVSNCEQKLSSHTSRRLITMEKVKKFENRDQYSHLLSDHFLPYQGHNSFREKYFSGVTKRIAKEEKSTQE
UniProt Q96F44: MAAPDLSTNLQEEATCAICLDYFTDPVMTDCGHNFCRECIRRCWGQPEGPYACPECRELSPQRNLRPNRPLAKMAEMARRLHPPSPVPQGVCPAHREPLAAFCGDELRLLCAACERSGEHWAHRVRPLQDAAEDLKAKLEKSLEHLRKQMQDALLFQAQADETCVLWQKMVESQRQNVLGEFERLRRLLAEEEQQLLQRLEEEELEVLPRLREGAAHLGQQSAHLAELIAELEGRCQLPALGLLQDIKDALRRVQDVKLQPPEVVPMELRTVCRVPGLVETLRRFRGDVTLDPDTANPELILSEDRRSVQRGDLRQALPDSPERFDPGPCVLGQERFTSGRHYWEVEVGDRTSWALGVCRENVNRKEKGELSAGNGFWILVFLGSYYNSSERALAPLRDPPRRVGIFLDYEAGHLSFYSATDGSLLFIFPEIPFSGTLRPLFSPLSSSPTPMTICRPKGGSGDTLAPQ
UniProt O14545: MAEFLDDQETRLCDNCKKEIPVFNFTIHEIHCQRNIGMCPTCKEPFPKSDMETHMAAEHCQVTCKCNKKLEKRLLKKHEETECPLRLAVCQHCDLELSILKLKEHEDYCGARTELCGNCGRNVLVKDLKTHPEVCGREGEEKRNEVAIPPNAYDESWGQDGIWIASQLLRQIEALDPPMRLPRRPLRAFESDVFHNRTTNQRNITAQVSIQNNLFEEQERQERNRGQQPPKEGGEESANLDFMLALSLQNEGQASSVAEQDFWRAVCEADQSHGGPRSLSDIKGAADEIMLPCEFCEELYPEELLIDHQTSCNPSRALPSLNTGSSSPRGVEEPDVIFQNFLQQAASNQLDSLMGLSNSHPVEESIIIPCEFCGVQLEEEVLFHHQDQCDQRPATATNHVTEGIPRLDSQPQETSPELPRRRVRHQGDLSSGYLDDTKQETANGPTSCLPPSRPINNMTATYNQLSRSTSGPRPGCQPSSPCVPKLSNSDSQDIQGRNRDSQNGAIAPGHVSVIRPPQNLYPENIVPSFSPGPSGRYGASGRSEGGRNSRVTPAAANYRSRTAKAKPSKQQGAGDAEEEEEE
UniProt Q8WWH5: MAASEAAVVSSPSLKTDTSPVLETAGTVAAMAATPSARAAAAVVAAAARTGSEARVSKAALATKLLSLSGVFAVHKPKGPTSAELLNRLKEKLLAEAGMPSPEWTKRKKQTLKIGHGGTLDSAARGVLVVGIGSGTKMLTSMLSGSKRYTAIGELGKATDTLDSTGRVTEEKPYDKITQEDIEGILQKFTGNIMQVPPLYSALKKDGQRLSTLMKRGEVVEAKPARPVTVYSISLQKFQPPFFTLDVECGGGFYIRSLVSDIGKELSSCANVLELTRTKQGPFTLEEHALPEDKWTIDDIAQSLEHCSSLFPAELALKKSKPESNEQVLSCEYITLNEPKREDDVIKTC
UniProt Q13049: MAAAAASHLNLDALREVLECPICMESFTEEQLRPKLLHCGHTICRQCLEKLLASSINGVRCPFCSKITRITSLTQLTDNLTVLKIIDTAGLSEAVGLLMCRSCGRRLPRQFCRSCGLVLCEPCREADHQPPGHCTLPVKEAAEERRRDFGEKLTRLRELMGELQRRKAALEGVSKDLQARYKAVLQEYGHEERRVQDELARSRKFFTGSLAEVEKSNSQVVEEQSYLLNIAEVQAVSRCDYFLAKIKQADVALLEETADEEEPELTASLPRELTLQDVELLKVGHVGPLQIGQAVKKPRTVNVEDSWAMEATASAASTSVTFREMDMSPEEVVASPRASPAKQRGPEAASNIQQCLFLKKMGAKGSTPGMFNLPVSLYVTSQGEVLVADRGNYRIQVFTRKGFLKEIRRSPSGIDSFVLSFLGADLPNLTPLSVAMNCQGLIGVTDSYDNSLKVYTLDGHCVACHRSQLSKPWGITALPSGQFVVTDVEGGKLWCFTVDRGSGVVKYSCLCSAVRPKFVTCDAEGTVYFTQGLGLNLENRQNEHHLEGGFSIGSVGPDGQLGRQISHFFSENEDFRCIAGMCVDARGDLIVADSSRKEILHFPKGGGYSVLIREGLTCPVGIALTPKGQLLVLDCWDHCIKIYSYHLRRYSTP

Assays:
Assay in all cases: log2 fold change, soluble protein after heating vs DMSO (PISA); higher = thermal stabilisation; K562 cells, 10 uM, 30 min; active = over 0.2 and 3.5 SD of the protein, either way, in both replicates (recomputed)
[1] = compound: CS(=O)(=O)c1ccc(-c2cnc(N)c(C(=O)Nc3ccccc3)n2)cc1
How it was run: (§1)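 K562 cells at 2×10^6 cells/mL were exposed to 10 μM compound for 30 min, then aliquots were heated for 3 min across 48°C-58°C, pooled, and extracted in PBS containing 0.5% NP-40 at 4°C. The supernatant after 21,000xg for 90 min was taken as soluble protein and measured by TMTpro 16plex LC-MS/MS with channel sums equalised. Thermal stability is reported relative to control samples, with values from duplicates. Fold changes are given on a log2 scale.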

crizotinib = compound: C[C@@H](Oc1cc(-c2cnn(C3CCNCC3)c2)cnc1N)c1c(Cl)ccc(F)c1Cl [crizotinib]
How it was run: as §1

[2] = compound: C[C@@H]1COCCN1C2=NC(=NC(=C2)C3(CC3)S(=O)(=O)C)C4=C5C=CNC5=CC=C4
How it was run: as §1

[3] = compound: C[C@H](C1=CC=C(C=C1)C(=O)NC2=C3C=CNC3=NC=C2)N
How it was run: as §1

duvelisib = compound: C[C@H](Nc1ncnc2nc[nH]c12)c1cc2cccc(Cl)c2c(=O)n1-c1ccccc1 [duvelisib]
How it was run: as §1

gandotinib = compound: Cc1cc(Nc2cc(CN3CCOCC3)c3nc(C)c(Cc4ccc(Cl)cc4F)n3n2)n[nH]1 [gandotinib]
How it was run: as §1

tozasertib = compound: Cc1cc(Nc2cc(N3CCN(C)CC3)nc(Sc3ccc(NC(=O)C4CC4)cc3)n2)n[nH]1 [tozasertib]
How it was run: as §1

[4] = compound: Cc1cc(SCc2sc(-c3ccc(C(F)(F)F)cc3)nc2C)ccc1OCC(=O)O
How it was run: as §1

doramapimod = compound: Cc1ccc(-n2nc(C(C)(C)C)cc2NC(=O)Nc2ccc(OCCN3CCOCC3)c3ccccc23)cc1 [doramapimod]
How it was run: as §1

ispinesib = compound: Cc1ccc(C(=O)N(CCCN)[C@@H](c2nc3cc(Cl)ccc3c(=O)n2Cc2ccccc2)C(C)C)cc1 [ispinesib]
How it was run: as §1

bafetinib = compound: Cc1ccc(NC(=O)c2ccc(CN3CC[C@H](N(C)C)C3)c(C(F)(F)F)c2)cc1Nc1nccc(-c2cncnc2)n1 [bafetinib]
How it was run: as §1

[5] = compound: Cc1cccc(CC(=O)N2CCc3c2ccc(-c2cn(C)c4ncnc(N)c24)c3F)n1
How it was run: as §1

nilotinib = compound: Cc1cn(-c2cc(NC(=O)c3ccc(C)c(Nc4nccc(-c5cccnc5)n4)c3)cc(C(F)(F)F)c2)cn1 [nilotinib]
How it was run: as §1

[6] = compound: Cc1nc(Nc2n[nH]c3c2CN(C(=O)N[C@H](CN(C)C)c2ccccc2)C3(C)C)c2sccc2n1
How it was run: as §1

dasatinib = compound: Cc1nc(Nc2ncc(C(=O)Nc3c(C)cccc3Cl)s2)cc(N2CCN(CCO)CC2)n1 [dasatinib]
How it was run: as §1

[7] = compound: Cc1ncc(-c2ccnc(Nc3ccc(S(C)(=O)=O)cc3)n2)n1C(C)C
How it was run: as §1

[8] = compound: Cn1cc(-c2ccc3c(c2)CCN3C(=O)Cc2cccc(C(F)(F)F)c2)c2c(N)ncnc21
How it was run: as §1

[9] = compound: Cn1cc(-c2ccc3nnc(C(F)(F)c4ccc5ncccc5c4)n3n2)cn1
How it was run: as §1

tipifarnib = compound: Cn1cncc1[C@@](N)(c1ccc(Cl)cc1)c1ccc2c(c1)c(-c1cccc(Cl)c1)cc(=O)n2C [tipifarnib]
How it was run: as §1

mubritinib = compound: FC(F)(F)c1ccc(/C=C/c2nc(COc3ccc(CCCCn4ccnn4)cc3)co2)cc1 [mubritinib]
How it was run: as §1

Measured: log2 fold change

TRIP6 (UniProt Q15654)
inactive: [1] -0.001 | crizotinib 0.067 | [2] 0.058 | [3] -0.057 | duvelisib 0.002 | gandotinib 0.046 | tozasertib -0.002 | [4] -0.011 | doramapimod -0.029 | ispinesib 0.037 | bafetinib -0.019 | [5] 0.007 | nilotinib 0.037 | [6] -0.035 | dasatinib 0.037 | [7] 0.004 | [8] 0.001 | [9] -0.027 | tipifarnib -0.005 | mubritinib 0.008

TRA2B (UniProt P62995)
inactive: [1] -0.29 | crizotinib 0.105 | [2] -0.366 | [3] 0.128 | duvelisib -0.151 | gandotinib 0.476 | tozasertib 0.005 | [4] -0.017 | doramapimod 0.131 | ispinesib -0.261 | bafetinib 0.167 | [5] -0.047 | nilotinib 0.152 | [6] -0.274 | dasatinib 0.197 | [7] 0.019 | [8] -0.395 | [9] -0.32 | tipifarnib 0.196 | mubritinib -0.103

TRIAP1 (UniProt O43715)
inactive: [1] 0.023 | crizotinib 0.134 | [2] 0.106 | [3] -0.101 | duvelisib 0.08 | gandotinib -0.011 | tozasertib 0.014 | [4] 0.023 | doramapimod -0.034 | ispinesib 0.124 | bafetinib -0.152 | [5] -0.079 | nilotinib 0.04 | [6] -0.027 | dasatinib 0.104 | [7] -0.033 | [8] 0.122 | [9] 0.275 | tipifarnib 0.04 | mubritinib -0.008

TRAPPC5 (UniProt Q8IUR0)
inactive: [1] 0.102 | crizotinib -0.075 | [2] 0.064 | [3] -0.052 | duvelisib -0.041 | gandotinib -0.162 | tozasertib 0.033 | [4] 0.139 | doramapimod -0.034 | ispinesib -0.107 | bafetinib 0.02 | [5] 0.076 | nilotinib -0.061 | [6] -0.071 | dasatinib -0.101 | [7] -0.013 | [8] 0.066 | [9] -0.029 | tipifarnib -0.044 | mubritinib 0.105

TPM1 (UniProt H7BYY1)
inactive: [1] -0.005 | crizotinib 0.051 | [2] 0.051 | [3] 0.025 | duvelisib 0.062 | gandotinib 0.005 | tozasertib -0.044 | [4] -0.052 | doramapimod -0.034 | ispinesib -0.02 | bafetinib -0.068 | [5] -0.081 | nilotinib -0.026 | [6] -0.011 | dasatinib 0.035 | [7] -0.019 | [8] -0.065 | [9] 0.071 | tipifarnib -0.003 | mubritinib 0.043

TOR1AIP2 (UniProt Q8NFQ8)
inactive: [1] 0.03 | crizotinib 0.099 | [2] 0.022 | [3] 0.135 | duvelisib 0.011 | gandotinib -0.002 | tozasertib 0.023 | [4] 0.04 | doramapimod 0.001 | ispinesib 0 | bafetinib -0.012 | [5] -0.01 | nilotinib 0.013 | [6] 0.059 | dasatinib 0.011 | [7] -0.033 | [8] -0.014 | [9] 0.009 | tipifarnib 0.067 | mubritinib -0.035

TPM1 isoform 4 (UniProt P09493)
inactive: [1] -0.021 | crizotinib 0.017 | [2] 0.007 | [3] -0.029 | duvelisib 0.003 | gandotinib -0.037 | tozasertib -0.026 | [4] -0.057 | doramapimod 0.013 | ispinesib 0.014 | bafetinib -0.017 | [5] -0.016 | nilotinib 0.063 | [6] -0.022 | dasatinib 0.01 | [7] -0.005 | [8] 0.034 | [9] 0.004 | tipifarnib -0.008 | mubritinib 0.018

TNFRSF1B (UniProt P20333)
inactive: [1] 0.092 | crizotinib 0.026 | [2] -0.157 | [3] 0.008 | duvelisib -0.194 | gandotinib 0.013 | tozasertib -0.027 | [4] -0.124 | doramapimod -0.042 | ispinesib 0.002 | bafetinib -0.184 | [5] -0.027 | nilotinib -0.037 | [6] -0.057 | dasatinib 0.092 | [7] 0.05 | [8] -0.014 | [9] -0.046 | tipifarnib 0.082 | mubritinib -0.034

TOP2B (UniProt Q02880)
inactive: [1] 0.005 | crizotinib -0.125 | [2] -0.476 | [3] 0.583 | duvelisib -0.083 | gandotinib 0.16 | tozasertib 0.043 | [4] 0.04 | doramapimod 0.336 | ispinesib -0.33 | bafetinib 0.259 | [5] 0.097 | nilotinib -0.08 | [6] -0.032 | dasatinib 0.095 | [7] -0.063 | [8] -0.179 | [9] -0.298 | tipifarnib 0.14 | mubritinib -0.231

TRMT11 (UniProt Q7Z4G4)
inactive: [1] 0.047 | crizotinib 0.034 | [2] 0.086 | [3] -0.08 | duvelisib -0.017 | gandotinib 0.048 | tozasertib 0.004 | [4] -0.009 | doramapimod -0.1 | ispinesib 0.107 | bafetinib 0 | [5] -0.008 | nilotinib 0.007 | [6] -0.037 | dasatinib -0.041 | [7] 0.032 | [8] 0.069 | [9] -0.006 | tipifarnib 0.01 | mubritinib 0.069

Pulled one by one from the list above, two records:
TNFRSF1B (UniProt P20333)
inactive: [1] 0.092 | crizotinib 0.026 | [2] -0.157 | [3] 0.008 | duvelisib -0.194 | gandotinib 0.013 | tozasertib -0.027 | [4] -0.124 | doramapimod -0.042 | ispinesib 0.002 | bafetinib -0.184 | [5] -0.027 | nilotinib -0.037 | [6] -0.057 | dasatinib 0.092 | [7] 0.05 | [8] -0.014 | [9] -0.046 | tipifarnib 0.082 | mubritinib -0.034

TRMT11 (UniProt Q7Z4G4)
inactive: [1] 0.047 | crizotinib 0.034 | [2] 0.086 | [3] -0.08 | duvelisib -0.017 | gandotinib 0.048 | tozasertib 0.004 | [4] -0.009 | doramapimod -0.1 | ispinesib 0.107 | bafetinib 0 | [5] -0.008 | nilotinib 0.007 | [6] -0.037 | dasatinib -0.041 | [7] 0.032 | [8] 0.069 | [9] -0.006 | tipifarnib 0.01 | mubritinib 0.069

Next part

TOP1 (UniProt P11387)
inactive: [1] 0.045 | crizotinib -0.137 | [2] 0.042 | [3] 0.645 | duvelisib -0.064 | gandotinib 0.033 | tozasertib -0.072 | [4] 0.107 | doramapimod 0.201 | ispinesib -0.207 | bafetinib 0.07 | [5] -0.095 | nilotinib -0.037 | [6] 0.236 | dasatinib -0.014 | [7] 0.036 | [8] -0.162 | [9] -0.025 | tipifarnib 0.076 | mubritinib -0.13

TRIM11 (UniProt Q96F44)
inactive: [1] -0.018 | crizotinib 0.084 | [2] 0.042 | [3] -0.032 | duvelisib -0.051 | gandotinib -0.218 | tozasertib -0.016 | [4] 0.1 | doramapimod 0.035 | ispinesib 0.033 | bafetinib -0.027 | [5] -0.178 | nilotinib -0.077 | [6] -0.064 | dasatinib -0.139 | [7] -0.025 | [8] 0.032 | [9] -0.015 | tipifarnib 0.045 | mubritinib 0.148

TRAFD1 (UniProt O14545)
inactive: [1] -0.032 | crizotinib -0.022 | [2] -0.056 | [3] -0.087 | duvelisib 0.048 | gandotinib 0.077 | tozasertib 0.03 | [4] -0.051 | doramapimod -0.036 | ispinesib 0.012 | bafetinib -0.014 | [5] -0.038 | nilotinib 0.037 | [6] 0 | dasatinib 0.037 | [7] -0.007 | [8] 0.02 | [9] -0.01 | tipifarnib -0.027 | mubritinib -0.015

TRUB1 (UniProt Q8WWH5)
inactive: [1] -0.009 | crizotinib 0.102 | [2] 0.028 | [3] -0.039 | duvelisib 0.003 | gandotinib -0.129 | tozasertib 0.014 | [4] -0.047 | doramapimod -0.027 | ispinesib 0.01 | bafetinib -0.035 | [5] 0.022 | nilotinib -0.038 | [6] -0.051 | dasatinib -0.022 | [7] -0.005 | [8] 0.033 | [9] 0.032 | tipifarnib -0.02 | mubritinib 0.004

TRIM32 (UniProt Q13049)
inactive: [1] 0.024 | crizotinib 0.094 | [2] 0.066 | [3] 0.085 | duvelisib -0.045 | gandotinib -0.006 | tozasertib 0.01 | [4] -0.1 | doramapimod 0.036 | ispinesib 0 | bafetinib 0.004 | [5] -0.041 | nilotinib -0.066 | [6] -0.022 | dasatinib 0.09 | [7] 0.079 | [8] 0.308 | [9] -0.044 | tipifarnib 0.049 | mubritinib -0.245

TP53BP2 isoform 3 (UniProt Q13625)
inactive: [1] 0.015 | crizotinib -0.087 | [2] -0.029 | [3] 0.092 | duvelisib -0.078 | gandotinib -0.035 | tozasertib 0.095 | [4] 0.038 | doramapimod 0.008 | ispinesib -0.221 | bafetinib 0.038 | [5] 0.109 | nilotinib 0.161 | [6] 0.022 | dasatinib -0.237 | [7] 0.137 | [8] 0.086 | [9] -0.037 | tipifarnib -0.04
